According to the supplement of paper PMC6411743:
± gives the standard deviation of the averaged measurements. The entries are a selection whose mix differs from that of the whole data set.

The chains behind the UniProt entries cited, without tags or fusion partners. Where a name states a change or a piece, a line headed by the entry shows the natural chain unless it says otherwise.
UniProt Q9BY44: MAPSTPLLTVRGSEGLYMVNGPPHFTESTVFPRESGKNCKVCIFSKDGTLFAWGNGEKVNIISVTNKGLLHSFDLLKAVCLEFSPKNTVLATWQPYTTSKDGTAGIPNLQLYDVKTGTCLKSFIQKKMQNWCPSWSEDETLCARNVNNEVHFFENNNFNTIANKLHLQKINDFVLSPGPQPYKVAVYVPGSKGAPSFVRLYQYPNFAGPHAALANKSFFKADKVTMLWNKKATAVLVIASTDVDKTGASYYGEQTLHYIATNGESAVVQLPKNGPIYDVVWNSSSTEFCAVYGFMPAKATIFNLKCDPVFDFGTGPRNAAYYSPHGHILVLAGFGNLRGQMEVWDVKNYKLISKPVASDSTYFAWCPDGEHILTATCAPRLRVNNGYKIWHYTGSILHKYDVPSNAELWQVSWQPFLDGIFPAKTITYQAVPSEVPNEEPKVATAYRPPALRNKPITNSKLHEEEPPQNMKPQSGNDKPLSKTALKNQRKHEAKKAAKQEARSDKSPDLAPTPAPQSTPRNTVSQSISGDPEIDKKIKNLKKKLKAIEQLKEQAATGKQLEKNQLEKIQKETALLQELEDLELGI
UniProt Q96RL1: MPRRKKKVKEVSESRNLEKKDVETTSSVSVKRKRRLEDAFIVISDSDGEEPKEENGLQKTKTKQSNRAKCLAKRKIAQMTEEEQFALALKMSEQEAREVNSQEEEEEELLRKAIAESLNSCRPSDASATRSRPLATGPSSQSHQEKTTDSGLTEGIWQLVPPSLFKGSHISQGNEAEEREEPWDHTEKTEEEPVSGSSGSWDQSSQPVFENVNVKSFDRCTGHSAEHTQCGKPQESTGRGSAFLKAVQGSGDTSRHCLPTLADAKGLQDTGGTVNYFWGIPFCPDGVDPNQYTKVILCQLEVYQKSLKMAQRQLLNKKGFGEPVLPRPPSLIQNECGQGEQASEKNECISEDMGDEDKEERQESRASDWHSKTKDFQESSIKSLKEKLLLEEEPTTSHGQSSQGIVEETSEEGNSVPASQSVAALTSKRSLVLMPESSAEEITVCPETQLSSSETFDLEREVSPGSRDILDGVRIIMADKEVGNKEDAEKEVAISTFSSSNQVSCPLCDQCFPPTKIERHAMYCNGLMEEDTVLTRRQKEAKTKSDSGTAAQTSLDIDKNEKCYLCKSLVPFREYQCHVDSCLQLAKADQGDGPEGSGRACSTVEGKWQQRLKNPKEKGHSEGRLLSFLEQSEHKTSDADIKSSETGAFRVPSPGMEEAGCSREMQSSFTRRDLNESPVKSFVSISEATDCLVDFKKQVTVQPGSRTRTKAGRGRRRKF
UniProt Q96R06: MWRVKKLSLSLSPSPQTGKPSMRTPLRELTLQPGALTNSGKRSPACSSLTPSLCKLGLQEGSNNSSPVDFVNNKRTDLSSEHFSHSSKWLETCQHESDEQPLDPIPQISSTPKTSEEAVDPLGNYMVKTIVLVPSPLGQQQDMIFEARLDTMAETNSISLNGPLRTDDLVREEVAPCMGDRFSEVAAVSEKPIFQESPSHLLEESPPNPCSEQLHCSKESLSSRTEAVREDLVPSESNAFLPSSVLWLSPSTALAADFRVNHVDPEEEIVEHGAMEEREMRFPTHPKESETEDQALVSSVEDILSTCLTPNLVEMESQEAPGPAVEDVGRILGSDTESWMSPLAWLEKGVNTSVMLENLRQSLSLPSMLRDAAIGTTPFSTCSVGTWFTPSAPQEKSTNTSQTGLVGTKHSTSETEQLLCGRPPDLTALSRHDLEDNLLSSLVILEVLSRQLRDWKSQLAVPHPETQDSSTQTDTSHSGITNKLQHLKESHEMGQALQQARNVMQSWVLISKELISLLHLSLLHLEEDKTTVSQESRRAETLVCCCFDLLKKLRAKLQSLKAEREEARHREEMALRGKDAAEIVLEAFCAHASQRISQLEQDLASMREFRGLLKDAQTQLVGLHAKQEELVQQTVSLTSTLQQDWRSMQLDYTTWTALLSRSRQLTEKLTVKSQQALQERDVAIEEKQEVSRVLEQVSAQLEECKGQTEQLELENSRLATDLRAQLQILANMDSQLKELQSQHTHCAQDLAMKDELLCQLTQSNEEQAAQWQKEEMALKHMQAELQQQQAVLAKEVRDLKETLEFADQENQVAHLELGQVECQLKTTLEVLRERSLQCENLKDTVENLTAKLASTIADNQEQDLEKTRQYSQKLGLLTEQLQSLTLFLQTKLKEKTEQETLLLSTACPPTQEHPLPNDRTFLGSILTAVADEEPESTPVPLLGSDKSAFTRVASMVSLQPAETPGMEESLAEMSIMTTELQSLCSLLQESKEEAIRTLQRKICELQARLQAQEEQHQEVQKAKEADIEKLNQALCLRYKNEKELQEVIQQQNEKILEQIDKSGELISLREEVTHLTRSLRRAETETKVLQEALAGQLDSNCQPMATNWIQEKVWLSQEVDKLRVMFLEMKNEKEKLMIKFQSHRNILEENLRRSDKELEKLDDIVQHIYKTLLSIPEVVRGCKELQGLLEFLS
UniProt Q99575: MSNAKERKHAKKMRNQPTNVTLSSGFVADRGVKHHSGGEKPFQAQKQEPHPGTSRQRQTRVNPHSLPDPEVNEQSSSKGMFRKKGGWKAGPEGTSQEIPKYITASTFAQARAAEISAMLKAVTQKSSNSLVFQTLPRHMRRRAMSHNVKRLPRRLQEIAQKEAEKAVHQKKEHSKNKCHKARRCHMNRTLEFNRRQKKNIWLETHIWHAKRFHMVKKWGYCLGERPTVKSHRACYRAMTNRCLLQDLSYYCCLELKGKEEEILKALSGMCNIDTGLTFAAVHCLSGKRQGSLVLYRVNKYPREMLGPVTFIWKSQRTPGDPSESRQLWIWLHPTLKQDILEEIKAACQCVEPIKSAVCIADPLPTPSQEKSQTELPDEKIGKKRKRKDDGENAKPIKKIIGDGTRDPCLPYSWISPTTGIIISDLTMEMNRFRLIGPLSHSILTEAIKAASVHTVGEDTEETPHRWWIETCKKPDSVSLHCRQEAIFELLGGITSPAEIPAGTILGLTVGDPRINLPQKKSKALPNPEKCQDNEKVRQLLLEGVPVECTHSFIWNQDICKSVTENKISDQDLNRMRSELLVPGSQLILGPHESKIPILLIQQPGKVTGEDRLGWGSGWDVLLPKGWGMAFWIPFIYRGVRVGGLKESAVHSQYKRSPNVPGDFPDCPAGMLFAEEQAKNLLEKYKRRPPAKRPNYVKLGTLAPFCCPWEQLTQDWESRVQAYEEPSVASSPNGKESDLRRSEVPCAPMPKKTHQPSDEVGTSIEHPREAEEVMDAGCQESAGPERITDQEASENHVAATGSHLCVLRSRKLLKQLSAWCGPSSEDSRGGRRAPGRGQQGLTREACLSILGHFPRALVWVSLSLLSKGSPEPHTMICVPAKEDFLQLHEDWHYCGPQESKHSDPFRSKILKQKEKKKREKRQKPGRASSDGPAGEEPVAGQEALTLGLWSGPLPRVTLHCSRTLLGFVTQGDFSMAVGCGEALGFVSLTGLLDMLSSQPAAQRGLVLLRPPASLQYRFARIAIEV
UniProt Q9BW71: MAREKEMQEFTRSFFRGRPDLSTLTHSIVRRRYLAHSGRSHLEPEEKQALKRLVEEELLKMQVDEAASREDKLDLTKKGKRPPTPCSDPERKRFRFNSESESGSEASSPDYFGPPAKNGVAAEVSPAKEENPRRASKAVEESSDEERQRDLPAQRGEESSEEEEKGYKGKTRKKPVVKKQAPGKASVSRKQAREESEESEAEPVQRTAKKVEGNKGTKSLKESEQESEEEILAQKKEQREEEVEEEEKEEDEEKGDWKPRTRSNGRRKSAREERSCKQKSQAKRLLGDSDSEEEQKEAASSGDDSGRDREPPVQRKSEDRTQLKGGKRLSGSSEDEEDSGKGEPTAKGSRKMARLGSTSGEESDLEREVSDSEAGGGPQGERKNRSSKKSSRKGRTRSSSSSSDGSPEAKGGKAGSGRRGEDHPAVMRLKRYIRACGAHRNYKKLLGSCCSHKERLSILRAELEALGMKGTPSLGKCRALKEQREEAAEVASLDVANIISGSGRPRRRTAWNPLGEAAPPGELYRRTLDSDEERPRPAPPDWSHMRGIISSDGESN
UniProt Q9BPW8: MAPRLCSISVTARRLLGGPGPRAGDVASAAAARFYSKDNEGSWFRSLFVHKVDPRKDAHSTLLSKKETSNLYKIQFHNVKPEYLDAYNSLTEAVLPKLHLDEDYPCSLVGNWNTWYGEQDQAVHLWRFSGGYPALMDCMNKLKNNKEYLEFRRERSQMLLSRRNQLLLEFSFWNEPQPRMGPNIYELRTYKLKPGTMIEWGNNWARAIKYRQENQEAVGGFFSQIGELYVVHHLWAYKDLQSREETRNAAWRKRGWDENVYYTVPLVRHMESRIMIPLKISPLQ
UniProt Q9BTK6, whole entry: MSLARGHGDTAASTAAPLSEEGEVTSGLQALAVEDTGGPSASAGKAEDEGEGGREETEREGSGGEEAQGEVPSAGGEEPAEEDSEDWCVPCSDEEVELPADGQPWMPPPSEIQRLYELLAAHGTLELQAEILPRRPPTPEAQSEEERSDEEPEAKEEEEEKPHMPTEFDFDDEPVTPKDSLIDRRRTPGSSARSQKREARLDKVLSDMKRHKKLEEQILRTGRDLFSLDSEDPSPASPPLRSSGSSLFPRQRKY
UniProt Q9BYJ9: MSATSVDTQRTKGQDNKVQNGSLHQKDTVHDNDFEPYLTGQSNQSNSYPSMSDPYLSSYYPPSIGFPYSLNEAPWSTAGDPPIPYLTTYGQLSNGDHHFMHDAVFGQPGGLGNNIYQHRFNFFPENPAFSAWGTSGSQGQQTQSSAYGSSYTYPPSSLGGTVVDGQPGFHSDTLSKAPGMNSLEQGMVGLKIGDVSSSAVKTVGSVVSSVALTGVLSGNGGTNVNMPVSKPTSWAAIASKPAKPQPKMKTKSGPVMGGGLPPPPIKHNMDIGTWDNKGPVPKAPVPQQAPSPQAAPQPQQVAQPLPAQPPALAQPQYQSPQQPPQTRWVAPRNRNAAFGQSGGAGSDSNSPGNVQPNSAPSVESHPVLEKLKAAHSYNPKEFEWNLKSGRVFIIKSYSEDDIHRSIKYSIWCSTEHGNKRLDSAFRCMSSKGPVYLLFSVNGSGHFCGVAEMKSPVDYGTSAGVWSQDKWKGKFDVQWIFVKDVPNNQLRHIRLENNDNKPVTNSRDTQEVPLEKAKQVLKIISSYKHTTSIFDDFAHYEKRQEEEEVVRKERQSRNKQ
UniProt Q9BRP4: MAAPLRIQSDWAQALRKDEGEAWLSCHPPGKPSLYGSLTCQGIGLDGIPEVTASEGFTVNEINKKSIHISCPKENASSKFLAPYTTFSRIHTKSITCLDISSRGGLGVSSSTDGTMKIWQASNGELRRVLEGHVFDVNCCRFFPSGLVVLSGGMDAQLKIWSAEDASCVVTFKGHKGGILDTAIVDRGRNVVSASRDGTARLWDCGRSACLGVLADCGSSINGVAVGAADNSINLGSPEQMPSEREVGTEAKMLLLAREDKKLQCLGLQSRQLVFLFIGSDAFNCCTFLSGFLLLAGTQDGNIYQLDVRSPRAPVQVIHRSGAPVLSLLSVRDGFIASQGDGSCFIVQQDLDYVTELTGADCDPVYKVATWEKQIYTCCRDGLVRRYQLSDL
UniProt Q99653: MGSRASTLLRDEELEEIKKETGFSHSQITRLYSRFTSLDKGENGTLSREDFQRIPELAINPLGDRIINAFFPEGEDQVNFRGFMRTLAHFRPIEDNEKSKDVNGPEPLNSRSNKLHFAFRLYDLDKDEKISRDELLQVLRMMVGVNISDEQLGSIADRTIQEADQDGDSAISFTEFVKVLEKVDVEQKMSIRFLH
UniProt Q9BPX5, whole entry: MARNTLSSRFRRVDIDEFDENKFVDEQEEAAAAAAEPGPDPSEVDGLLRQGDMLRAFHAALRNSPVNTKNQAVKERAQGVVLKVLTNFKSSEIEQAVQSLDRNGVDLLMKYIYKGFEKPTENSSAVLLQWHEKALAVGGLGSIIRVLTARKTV
UniProt Q99829: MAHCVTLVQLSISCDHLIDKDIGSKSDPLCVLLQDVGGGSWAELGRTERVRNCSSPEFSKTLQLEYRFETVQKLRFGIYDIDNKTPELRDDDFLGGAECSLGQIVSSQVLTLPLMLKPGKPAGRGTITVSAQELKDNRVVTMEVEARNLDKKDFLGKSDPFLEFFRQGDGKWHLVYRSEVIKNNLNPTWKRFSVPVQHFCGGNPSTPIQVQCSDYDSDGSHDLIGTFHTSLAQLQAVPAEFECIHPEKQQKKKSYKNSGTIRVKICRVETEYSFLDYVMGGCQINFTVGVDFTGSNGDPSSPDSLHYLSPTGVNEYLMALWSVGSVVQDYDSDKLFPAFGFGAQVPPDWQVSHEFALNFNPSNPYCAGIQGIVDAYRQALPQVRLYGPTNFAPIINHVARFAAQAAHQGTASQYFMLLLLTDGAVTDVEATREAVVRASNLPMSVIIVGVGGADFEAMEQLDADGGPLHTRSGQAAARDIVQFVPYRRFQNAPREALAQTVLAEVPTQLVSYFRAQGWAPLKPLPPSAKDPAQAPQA

These targets were tested with Nc1ncnc2c1ncn2[C@@H]1O[C@H](COP(=O)(O)OP(=O)(O)NP(=O)(O)O)[C@@H](O)[C@H]1O [adenylyl imidodiphosphate] (assay: NP40-soluble protein abundance relative to vehicle (solubility fold change) (ratio); higher = more soluble protein in presence of AMP-PNP). Settings: concentration: 1mM.
Procedure, shortened: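 Across three independent experiments, values are fold changes against the detergent-processed vehicle for each replicate, based on vsn-normalised intensities. The samples were Jurkat crude lysate treated with eight concentrations (0.1 to 10 mM) for 10 min at room temperature and then 3 min at 37 °C. Lysate was solubilised with 0.8% NP40 and benzonase, ultracentrifuged, and the supernatant analysed by TMT-labelled LC-MS/MS.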

Row | Target | NP40-soluble protein abundance
1 | GINS3 (UniProt Q9BRX5) | 0.984 ± 0.031
2 | SPATA5L1 (UniProt Q9BVQ7) | 1.07 ± 0.024
3 | PIK3R4 (UniProt Q99570) | 0.959 ± 0.022
4 | UniProt Q9BY44 and related entries | 1.012 ± 0.0058
5 | UIMC1 (UniProt Q96RL1) | 1.06 ± 0.033
6 | UniProt Q99728 and related entries | 1.04 ± 0.034
7 | UniProt Q99549 and related entries | 1.03 ± 0.015
8 | NLN (UniProt Q9BYT8) | 1 ± 0.036
9 | BACH2 (UniProt Q9BYV9) | 1.01 ± 0.017
10 | SPAG5 (UniProt Q96R06) | 1 ± 0.029
11 | UniProt Q9BSC4 and related entries | 0.986 ± 0.021
12 | UniProt Q9BUH6 | 1.06 ± 0.024
13 | POP1 (UniProt Q99575) | 0.978 ± 0.031
14 | GNB1L (UniProt Q9BYB4) | 0.994 ± 0.012
15 | HIRIP3 (UniProt Q9BW71) | 1.05 ± 0.033
16 | NIPSNAP1 (UniProt Q9BPW8) | 0.94 ± 0.05
17 | TSG101 (UniProt Q99816) | 0.991 ± 0.018
18 | HSD17B10 (UniProt Q99714) | 0.989 ± 0.042
19 | PARK7 (UniProt Q99497) | 1.01 ± 0.017

Row | Target | NP40-soluble protein abundance
20 | UniProt Q9BU76 and related entries | 1.03 ± 0.04
21 | UniProt Q9BS26 | 1.048 ± 0.0098
22 | BUD13 (UniProt Q9BRD0) | 1.01 ± 0.027
23 | UniProt Q9BSJ8 and related entries | 0.998 ± 0.036
24 | UniProt Q96TA1 and related entries | 0.968 ± 0.022
25 | UniProt Q9BU23 and related entries | 0.947 ± 0.031
26 | UniProt Q9BTK6 | 0.962 ± 0.026
27 | UniProt Q96QU8 and related entries | 1.02 ± 0.022
28 | YTHDF1 (UniProt Q9BYJ9) | 1.05 ± 0.025
29 | UniProt Q9BRP4 and related entries | 0.936 ± 0.021
30 | UniProt Q99653 | 1.002 ± 0.0076
31 | KIF2C (UniProt Q99661) | 1.01 ± 0.018
32 | UniProt Q9BVP2 and related entries | 1.07 ± 0.054
33 | ARPC5L (UniProt Q9BPX5) | 1.04 ± 0.045
34 | UniProt Q9BV86 | 1.01 ± 0.052
35 | UniProt Q9BYV8 | 0.99 ± 0.027
36 | MECR (UniProt Q9BV79) | 1.04 ± 0.021
37 | UniProt Q99829 and related entries | 0.973 ± 0.022
38 | PSMB7 (UniProt Q99436) | 0.946 ± 0.04

Same assay, conditions: concentration: 2mM

Row | Target | NP40-soluble protein abundance
39 | GINS3 (UniProt Q9BRX5) | 1.01 ± 0.02
40 | SPATA5L1 (UniProt Q9BVQ7) | 1.07 ± 0.068
41 | PIK3R4 (UniProt Q99570) | 0.917 ± 0.078
42 | UniProt Q9BY44 and related entries | 1.007 ± 0.0077
43 | UIMC1 (UniProt Q96RL1) | 1.11 ± 0.092
44 | UniProt Q99728 and related entries | 1.04 ± 0.037
45 | UniProt Q99549 and related entries | 1.08 ± 0.053
46 | NLN (UniProt Q9BYT8) | 0.922 ± 0.09
47 | BACH2 (UniProt Q9BYV9) | 1.02 ± 0.031
48 | SPAG5 (UniProt Q96R06) | 1.03 ± 0.068
49 | UniProt Q9BSC4 and related entries | 1.01 ± 0.044
50 | UniProt Q9BUH6 | 1.11 ± 0.051
51 | POP1 (UniProt Q99575) | 0.982 ± 0.028
52 | GNB1L (UniProt Q9BYB4) | 0.944 ± 0.08
53 | HIRIP3 (UniProt Q9BW71) | 1.18 ± 0.12
54 | NIPSNAP1 (UniProt Q9BPW8) | 0.873 ± 0.075
55 | TSG101 (UniProt Q99816) | 0.995 ± 0.033
56 | HSD17B10 (UniProt Q99714) | 0.992 ± 0.043
57 | PARK7 (UniProt Q99497) | 1.03 ± 0.019

Row | Target | NP40-soluble protein abundance
58 | UniProt Q9BU76 and related entries | 1.04 ± 0.052
59 | UniProt Q9BS26 | 1.04 ± 0.06
60 | BUD13 (UniProt Q9BRD0) | 1.06 ± 0.088
61 | UniProt Q9BSJ8 and related entries | 0.925 ± 0.078
62 | UniProt Q96TA1 and related entries | 0.956 ± 0.021
63 | UniProt Q9BU23 and related entries | 0.956 ± 0.066
64 | UniProt Q9BTK6 | 0.998 ± 0.023
65 | UniProt Q96QU8 and related entries | 1.019 ± 0.0031
66 | YTHDF1 (UniProt Q9BYJ9) | 1.05 ± 0.032
67 | UniProt Q9BRP4 and related entries | 0.901 ± 0.084
68 | UniProt Q99653 | 1.014 ± 0.0064
69 | KIF2C (UniProt Q99661) | 1 ± 0.056
70 | UniProt Q9BVP2 and related entries | 1.09 ± 0.023
71 | ARPC5L (UniProt Q9BPX5) | 1.07 ± 0.06
72 | UniProt Q9BV86 | 0.941 ± 0.061
73 | UniProt Q9BYV8 | 1.04 ± 0.053
74 | MECR (UniProt Q9BV79) | 1.21 ± 0.051
75 | UniProt Q99829 and related entries | 0.935 ± 0.014
76 | PSMB7 (UniProt Q99436) | 0.909 ± 0.061

Same assay, conditions: concentration: 4mM

Row | Target | NP40-soluble protein abundance
77 | GINS3 (UniProt Q9BRX5) | 1 ± 0.036
78 | SPATA5L1 (UniProt Q9BVQ7) | 1.14 ± 0.032
79 | PIK3R4 (UniProt Q99570) | 0.935 ± 0.017
80 | UniProt Q9BY44 and related entries | 0.9922 ± 0.0079
81 | UIMC1 (UniProt Q96RL1) | 1.08 ± 0.04
82 | UniProt Q99728 and related entries | 1.04 ± 0.054
83 | UniProt Q99549 and related entries | 1.05 ± 0.014
84 | NLN (UniProt Q9BYT8) | 1.018 ± 0.0097
85 | BACH2 (UniProt Q9BYV9) | 0.992 ± 0.04
86 | SPAG5 (UniProt Q96R06) | 0.977 ± 0.024
87 | UniProt Q9BSC4 and related entries | 0.989 ± 0.028
88 | UniProt Q9BUH6 | 1.089 ± 0.007
89 | POP1 (UniProt Q99575) | 0.994 ± 0.024
90 | GNB1L (UniProt Q9BYB4) | 0.977 ± 0.011
91 | HIRIP3 (UniProt Q9BW71) | 1.11 ± 0.045
92 | NIPSNAP1 (UniProt Q9BPW8) | 0.943 ± 0.028
93 | TSG101 (UniProt Q99816) | 0.964 ± 0.025
94 | HSD17B10 (UniProt Q99714) | 1 ± 0.062
95 | PARK7 (UniProt Q99497) | 0.962 ± 0.043

Row | Target | NP40-soluble protein abundance
96 | UniProt Q9BU76 and related entries | 1 ± 0.067
97 | UniProt Q9BS26 | 1.03 ± 0.033
98 | BUD13 (UniProt Q9BRD0) | 1.04 ± 0.016
99 | UniProt Q9BSJ8 and related entries | 0.979 ± 0.012
100 | UniProt Q96TA1 and related entries | 0.98 ± 0.019
101 | UniProt Q9BU23 and related entries | 0.971 ± 0.015
102 | UniProt Q9BTK6 | 0.9633 ± 0.002
103 | UniProt Q96QU8 and related entries | 1.01 ± 0.026
104 | YTHDF1 (UniProt Q9BYJ9) | 1.02 ± 0.033
105 | UniProt Q9BRP4 and related entries | 0.92 ± 0.039
106 | UniProt Q99653 | 0.988 ± 0.026
107 | KIF2C (UniProt Q99661) | 1.001 ± 0.0041
108 | UniProt Q9BVP2 and related entries | 1.11 ± 0.061
109 | ARPC5L (UniProt Q9BPX5) | 1.07 ± 0.064
110 | UniProt Q9BV86 | 1.02 ± 0.033
111 | UniProt Q9BYV8 | 0.976 ± 0.041
112 | MECR (UniProt Q9BV79) | 1.07 ± 0.011
113 | UniProt Q99829 and related entries | 0.9803 ± 0.0079
114 | PSMB7 (UniProt Q99436) | 0.906 ± 0.057
